pKi: −log10 of the molar value. Some entries share one result that the patent states for a list of compounds.
Molecular target: T1, human CRF receptors (Homo sapiens, UniProt P34998)
T1 construct: expressed in transfected cells
T1 sequence (P34998 24-415): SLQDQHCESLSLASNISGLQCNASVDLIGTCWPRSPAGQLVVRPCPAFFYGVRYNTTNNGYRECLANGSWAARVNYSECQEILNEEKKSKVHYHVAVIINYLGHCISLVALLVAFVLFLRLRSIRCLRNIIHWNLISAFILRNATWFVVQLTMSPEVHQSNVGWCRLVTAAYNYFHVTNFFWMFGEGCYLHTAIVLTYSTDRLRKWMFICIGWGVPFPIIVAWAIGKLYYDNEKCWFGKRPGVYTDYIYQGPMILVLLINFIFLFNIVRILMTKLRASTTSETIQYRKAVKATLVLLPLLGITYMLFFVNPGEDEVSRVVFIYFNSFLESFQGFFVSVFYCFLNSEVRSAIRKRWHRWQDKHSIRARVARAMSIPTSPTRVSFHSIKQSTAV
Assay: CRF receptor binding activity (radioligand displacement, Example 25)
Settings: displacement of [125I] tyrosine-sauvagine from membranes of cells stably transfected with human CRF receptors; less than 0.10 μM (i.e., 100 nM); read-out: Ki (CRF receptor binding affinity)
Excerpt: The effectiveness of a compound as a CRF receptor antagonist may be determined by various assay methods. […] CRF receptor affinity may be determined by binding studies that measure the ability of a compound to inhibit the binding of a radiolabeled CRF (e.g., [^125I]tyrosine-CFR) to its receptor (e.g., receptors prepared from rat cerebral cortex membranes). The radioligand binding assay described by DeSouza et al. (supra, 1987) provides an assay for determining a compound's affinity for the CRF receptor.
[formula] where L=radioligand and KD=affinity of radioligand for receptor (Cheng and Prusoff, Biochem. Pharmacol. 22:3099, 1973).
By utilizing radiolabeled CRF ligands, the assay may be used to evaluate the binding activity of the compounds of the present invention with any CRF receptor subtype.
Briefly, the binding assay involves the displacement of a radiolabeled CRF ligand from the CRF receptor. More specifically, the binding assay is performed in 96-well assay plates using 1-10 μg cell membranes from cells stably transfected with human CRF receptors. […] Following three washes, the filters are dried and radioactivity (Auger electrons from ^125I) is counted using a scintillation counter. All radioligand binding data may be analyzed using the non-linear least-squares curve-fitting programs Prism (GraphPad Software Inc) or XLfit (ID Business Solutions Ltd).

With “[1-(3-Isopropyl-[1,2,4]oxadiazol-5-yl)-propyl]-[3-(4-methoxy-2-methyl-phenyl)-2,5-dimethyl-pyrazolo[1,5-a]pyrimidin-7-yl]-amine [Example 11-2]” the pKi was > 7.00.
